Data as given in publication PMC10813977.
Like-named read-outs stand apart in the source and are kept apart here. These are yes or no findings as the source states them, for the method shown. Binding seen in cells or lysates may run through a third protein. These calls come from enrichment with a bait or labelling near it, and not all partners need be listed. Where a sequence is shown, tags or fusion partners need not be part of it.

Chains of the proteins cited; added tags and fusions are not shown.
UniProt P42224: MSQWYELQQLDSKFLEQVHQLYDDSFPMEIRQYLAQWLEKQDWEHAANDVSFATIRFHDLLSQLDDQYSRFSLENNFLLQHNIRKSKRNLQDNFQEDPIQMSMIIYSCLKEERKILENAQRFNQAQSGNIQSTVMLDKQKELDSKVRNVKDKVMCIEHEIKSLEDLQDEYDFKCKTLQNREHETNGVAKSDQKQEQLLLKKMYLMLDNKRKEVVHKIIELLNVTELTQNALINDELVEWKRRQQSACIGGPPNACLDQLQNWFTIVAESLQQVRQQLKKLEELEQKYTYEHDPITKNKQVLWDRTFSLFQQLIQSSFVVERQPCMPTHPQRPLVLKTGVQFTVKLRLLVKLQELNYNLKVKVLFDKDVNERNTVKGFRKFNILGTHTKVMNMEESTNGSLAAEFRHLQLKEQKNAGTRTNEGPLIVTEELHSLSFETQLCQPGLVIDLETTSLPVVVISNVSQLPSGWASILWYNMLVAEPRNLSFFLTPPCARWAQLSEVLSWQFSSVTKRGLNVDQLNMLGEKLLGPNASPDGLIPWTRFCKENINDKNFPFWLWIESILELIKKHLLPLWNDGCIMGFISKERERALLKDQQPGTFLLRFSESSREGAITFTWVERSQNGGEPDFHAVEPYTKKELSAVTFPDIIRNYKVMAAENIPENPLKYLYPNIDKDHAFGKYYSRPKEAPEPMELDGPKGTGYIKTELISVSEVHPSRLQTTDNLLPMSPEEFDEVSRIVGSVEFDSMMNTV
UniProt P28838: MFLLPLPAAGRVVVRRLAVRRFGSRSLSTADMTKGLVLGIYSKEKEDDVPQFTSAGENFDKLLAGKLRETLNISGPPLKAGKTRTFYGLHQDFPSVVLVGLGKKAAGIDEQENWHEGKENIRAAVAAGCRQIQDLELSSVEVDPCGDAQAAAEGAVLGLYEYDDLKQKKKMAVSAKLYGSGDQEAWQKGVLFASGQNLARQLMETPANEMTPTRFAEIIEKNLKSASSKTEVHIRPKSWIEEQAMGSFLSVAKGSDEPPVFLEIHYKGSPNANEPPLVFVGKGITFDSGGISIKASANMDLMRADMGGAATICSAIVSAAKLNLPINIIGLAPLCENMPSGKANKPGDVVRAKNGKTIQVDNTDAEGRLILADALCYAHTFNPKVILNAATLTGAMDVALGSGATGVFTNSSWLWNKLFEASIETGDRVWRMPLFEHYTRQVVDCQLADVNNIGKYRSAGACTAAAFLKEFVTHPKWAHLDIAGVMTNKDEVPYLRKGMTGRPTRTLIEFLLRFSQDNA

T1: tryptophanyl-tRNA synthetase (WARS) tagged with Flag (human (cDNA from the A375 cell line)) (UniProt P23381)
T1 sequence: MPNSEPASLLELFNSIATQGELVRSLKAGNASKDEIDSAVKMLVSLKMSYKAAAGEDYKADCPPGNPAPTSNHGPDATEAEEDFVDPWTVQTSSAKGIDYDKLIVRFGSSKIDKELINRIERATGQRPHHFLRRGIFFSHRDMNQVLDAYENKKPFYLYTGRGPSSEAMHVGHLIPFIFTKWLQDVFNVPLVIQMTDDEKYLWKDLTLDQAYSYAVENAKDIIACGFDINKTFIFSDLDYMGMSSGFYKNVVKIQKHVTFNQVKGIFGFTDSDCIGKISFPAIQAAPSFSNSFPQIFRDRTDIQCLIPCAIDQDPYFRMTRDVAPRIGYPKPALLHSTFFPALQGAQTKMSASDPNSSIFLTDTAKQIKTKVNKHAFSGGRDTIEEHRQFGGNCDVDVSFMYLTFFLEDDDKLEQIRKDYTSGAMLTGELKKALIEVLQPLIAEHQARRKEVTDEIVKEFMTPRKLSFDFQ


Legend:
[1] = target: T1, tryptophanyl-tRNA synthetase (WARS) tagged with Flag (human (cDNA from the A375 cell line)); assay: affinity purification with mass spectrometry; A375 cells transfected with WARS-Flag or control vector, treated with IFN-γ for 48 h; lysis in 50 mM Tris-HCl pH 8, 150 mM NaCl, 0.5% Nonidet P-40; anti-FLAG beads overnight at 4 °C, six washes, elution with 3× Flag peptide, tryptic digestion, LC-MS/MS
[2] = target: T1, tryptophanyl-tRNA synthetase (WARS) tagged with Flag (human (cDNA from the A375 cell line)); assay: as above; remark: listed apart in the source

Row | Molecule | binding [1] | binding [2]
1 | Signal transducer and activator of transcription 1 (STAT1), endogenous (from UniProt P42224 1-750) | binds | –
2 | cytosolic aminopeptidase LAP3 (from UniProt P28838 1-519) (enzyme) | binds | –
3 | Glycyl-tRNA synthetase (GARS) (enzyme, UniProt P41250 37-739) SAASCPPISLPAAASRSSMDGAGAEEVLAPLRLAVRQQGDLVRKLKEDKAPQVDVDKAVAELKARKRVLEAKELALQPKDDIVDRAKMEDTLKRRFFYDQAFAIYGGVSGLYDFGPVGCALKNNIIQTWRQHFIQEEQILEIDCTMLTPEPVLKTSGHVDKFADFMVKDVKNGECFRADHLLKAHLQKLMSDKKCSVEKKSEMESVLAQLDNYGQQELADLFVNYNVKSPITGNDLSPPVSFNLMFKTFIGPGGNMPGYLRPETAQGIFLNFKRLLEFNQGKLPFAAAQIGNSFRNEISPRSGLIRVREFTMAEIEHFVDPSEKDHPKFQNVADLHLYLYSAKAQVSGQSARKMRLGDAVEQGVINNTVLGYFIGRIYLYLTKVGISPDKLRFRQHMENEMAHYACDCWDAESKTSYGWIEIVGCADRSCYDLSCHARATKVPLVAEKPLKEPKTVNVVQFEPSKGAIGKAYKKDAKLVMEYLAICDECYITEMEMLLNEKGEFTIETEGKTFQLTKDMINVKRFQKTLYVEEVVPNVIEPSFGLGRIMYTVFEHTFHVREGDEQRTFFSFPAVVAPFKCSVLPLSQNQEFMPFVKELSEALTRHGVSHKVDDSSGSIGRRYARTDEIGVAFGVTIDFDTVNKTPHTATLRDRDSMRQIRAEISELPSIVQDLANGNITWADVEARYPLFEGQETGKKETIEE | – | binds
4 | Aspartyl-tRNA synthetase (DARS) (enzyme, UniProt P14868 1-501) MPSASASRKSQEKPREIMDAAEDYAKERYGISSMIQSQEKPDRVLVRVRDLTIQKADEVVWVRARVHTSRAKGKQCFLVLRQQQFNVQALVAVGDHASKQMVKFAANINKESIVDVEGVVRKVNQKIGSCTQQDVELHVQKIYVISLAEPRLPLQLDDAVRPEAEGEEEGRATVNQDTRLDNRVIDLRTSTSQAVFRLQSGICHLFRETLINKGFVEIQTPKIISAASEGGANVFTVSYFKNNAYLAQSPQLYKQMCICADFEKVFSIGPVFRAEDSNTHRHLTEFVGLDIEMAFNYHYHEVMEEIADTMVQIFKGLQERFQTEIQTVNKQFPCEPFKFLEPTLRLEYCEALAMLREAGVEMGDEDDLSTPNEKLLGHLVKEKYDTDFYILDKYPLAVRPFYTMPDPRNPKQSNSYDMFMRGEEILSGAQRIHDPQLLTERALHHGIDLEKIKAYIDSFRFGAPPHAGGGIGLERVTMLFLGLHNVRQTSMFPRDPKRLTP | – | binds
